± gives the standard deviation of the averaged measurements. This is a selection; strong and weak results do not stand in their true shares. This data set is noisy: repeats of one test often differ as much as different tests do.
Test system: FaDu
Test: mitochondrial oxygen consumption rate normalised to cell number, Z score over the library; higher = higher oxygen consumption (negative = OCR reduction)
Settings: treatment time 24 h, assay medium: 5 mM galactose, 5 mM pyruvate, 4 mM glutamine
Protocol: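 Primary screen: FaDu cells were incubated 24 h with Pharmakon 1600 / TDI oncology set compounds at 2 or 10 uM. Mitochondrial-specific OCR (basal minus 2 uM antimycin A) was measured on a Seahorse XF96 in assay medium with 5 mM galactose, 5 mM pyruvate and 4 mM glutamine, then corrected for Hoechst cell number and expressed as a Z score […]. Compounds that cut cell number by >66% were excluded. Two repeats.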

SMILES	mitochondrial oxygen consumption rate normalised (2 µM)	mitochondrial oxygen consumption rate normalised (10 µM)
Oc1c(I)cc(I)c2cccnc12	-0.362 ± 0.5	
O=C(CCCN1CC=C(n2c(=O)[nH]c3ccccc32)CC1)c1ccc(F)cc1	1.24 ± 0.54	
CCN(CC)CCNC(=O)c1cc(S(C)(=O)=O)ccc1OC	0.459 ± 1.2	
C[C@H]1[C@@H](O)O[C@@H]2O[C@@]3(C)CC[C@H]4[C@H](C)CC[C@@H]1[C@@]24OO3	-0.223 ± 0.058	
CCn1cc(C(=O)O)c(=O)c2ccc(C)nc21	0.76 ± 0.77	
O=C(O)CCC(=O)OC[C@@H](NC(=O)C(Cl)Cl)[C@H](O)c1ccc([N+](=O)[O-])cc1	-3.29 ± 0.069	-1.19 ± 0.7
COc1ccc2cc(CCC(C)=O)ccc2c1	-0.171 ± 1.7	
CCCCCC(C)N (stereo not given)	0.0701 ± 0.19	
C#CCN(C)Cc1ccccc1	-0.275 ± 0.29	
CC(=O)N[C@@H](CC(=O)N[C@@H](CCC(=O)O)C(=O)O)C(=O)O	-0.19 ± 0.48	
Cc1ccc(S(=O)(=O)NC(=O)NN2CC3CCCC3C2)cc1 (stereo not given)	0.427 ± 0.53	
NCCS(=O)(=O)O	-0.442 ± 0.2	
COc1cc2nc(N3CCN(C(=O)c4ccco4)CC3)nc(N)c2cc1OC	0.0936 ± 0.067	
CCn1cc(C(=O)O)c(=O)c2cnc(N3CCNCC3)nc21	-0.871 ± 0.019	
O=C([O-])c1ccccc1O.[Na+]	-0.35 ± 0.078	
NC[C@H]1O[C@H](O[C@H]2[C@H](O[C@@H]3O[C@H](CO)[C@@H](O)[C@H]3O)[C@@H](O)[C@H](N)C[C@@H]2N)[C@H](N)[C@@H](O)[C@@H]1O	0.141 ± 0.2	0.994 ± 0.3
C=CC[C@@H]1/C=C(\C)C[C@H](C)C[C@H](OC)[C@H]2O[C@@](O)(C(=O)C(=O)N3CCCC[C@H]3C(=O)O[C@H](/C(C)=C/[C@@H]3CC[C@@H](O)[C@H](OC)C3)[C@H](C)[C@@H](O)CC1=O)[C@H](C)C[C@@H]2OC	1.24 ± 1.2	
CCN(CC)CC#CCOC(=O)C(O)(c1ccccc1)C1CCCCC1 (stereo not given)	0.27 ± 0.37	
Cc1ncc([N+](=O)[O-])n1CCO	-0.158 ± 0.21	
OC(CCN1CCCCC1)(c1ccccc1)C1CC2C=CC1C2 (stereo not given)	0.109 ± 0.032	
CCN(Cc1ccncc1)C(=O)C(CO)c1ccccc1 (stereo not given)	0.49 ± 0.33	
CC(C)N1CCN(c2ccc(OCC3COC(Cn4cncn4)(c4ccc(Cl)cc4Cl)O3)cc2)CC1 (stereo not given)	0.137 ± 0.41	
CN1C2CCCC1CC(NC(=O)c1nn(C)c3ccccc13)C2 (stereo not given)	0.817 ± 0.43	
CO[C@@H]1[C@@H](OC(N)=O)[C@@H](O)[C@H](Oc2ccc3c(O)c(NC(=O)c4ccc(O)c(CC=C(C)C)c4)c(=O)oc3c2C)OC1(C)C	0.586 ± 0.28	
CCN1CCN(C(=O)N[C@@H](C(=O)N[C@@H]2C(=O)N3[C@@H]2SC(C)(C)[C@@H]3C(=O)O)c2ccccc2)C(=O)C1=O	0.18 ± 1.1	
CC(=O)Oc1cccc(O)c1	0.0871 ± 2.2	0.689 ± 0.62
CN1CCCC(n2nc(Cc3ccc(Cl)cc3)c3ccccc3c2=O)CC1 (stereo not given)	-0.645 ± 0.55	

Looked up above.
mitochondrial oxygen consumption rate normalised (2 µM), Cc1ncc([N+](=O)[O-])n1CCO is entered as -0.158 ± 0.21
mitochondrial oxygen consumption rate normalised (2 µM), CCn1cc(C(=O)O)c(=O)c2cnc(N3CCNCC3)nc21 is entered as -0.871 ± 0.019

— the supplement of paper PMC4962491
